Results published in patent US20080221144A1, “Controlled Release Formulations” (Innovative Drug Delivery Systems, Inc., priority 2004, published 2008).

Assay: clinical
Settings: both, human, in vivo, 10 mg; for AUC: Morphine AUC, morphine in plasma, single dose, healthy volunteers, naltrexone block, formulation per label

Question: What does the source list for CN1CC[C@]23c4c5ccc(O)c4O[C@H]2[C@@H](O)C=C[C@H]3[C@H]1C5.O=S(=O)(O)O [10 mg IV + IN Placebo, morphine sulphate]?
Answer: Cmax: 70 ± 20 ng/mL; Tmax: 30 min; AUC (Mean ± SD (first AUC row)): 70 ± 23 ng·h/mL; AUC (Mean ± SD): 75 ± 22 ng·h/mL
